Results from article PMC12000498.

Chains of the proteins cited; added tags and fusions are not shown.
UniProt Q9Z2G0: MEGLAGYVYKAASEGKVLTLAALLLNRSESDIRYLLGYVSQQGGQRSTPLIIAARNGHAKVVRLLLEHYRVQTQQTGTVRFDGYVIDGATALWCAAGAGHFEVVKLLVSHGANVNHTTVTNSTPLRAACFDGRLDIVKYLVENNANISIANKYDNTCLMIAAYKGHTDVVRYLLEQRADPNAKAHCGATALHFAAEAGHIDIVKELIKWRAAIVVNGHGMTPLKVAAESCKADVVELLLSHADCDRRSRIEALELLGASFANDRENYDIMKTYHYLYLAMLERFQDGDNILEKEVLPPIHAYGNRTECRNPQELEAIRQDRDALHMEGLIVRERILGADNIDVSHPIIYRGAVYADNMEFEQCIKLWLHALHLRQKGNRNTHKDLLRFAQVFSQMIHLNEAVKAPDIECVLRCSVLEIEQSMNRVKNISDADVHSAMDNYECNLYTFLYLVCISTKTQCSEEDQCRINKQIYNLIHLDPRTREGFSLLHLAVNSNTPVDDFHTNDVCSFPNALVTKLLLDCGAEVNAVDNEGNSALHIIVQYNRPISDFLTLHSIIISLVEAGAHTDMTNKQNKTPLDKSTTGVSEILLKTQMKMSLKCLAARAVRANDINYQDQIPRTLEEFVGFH
UniProt P08151: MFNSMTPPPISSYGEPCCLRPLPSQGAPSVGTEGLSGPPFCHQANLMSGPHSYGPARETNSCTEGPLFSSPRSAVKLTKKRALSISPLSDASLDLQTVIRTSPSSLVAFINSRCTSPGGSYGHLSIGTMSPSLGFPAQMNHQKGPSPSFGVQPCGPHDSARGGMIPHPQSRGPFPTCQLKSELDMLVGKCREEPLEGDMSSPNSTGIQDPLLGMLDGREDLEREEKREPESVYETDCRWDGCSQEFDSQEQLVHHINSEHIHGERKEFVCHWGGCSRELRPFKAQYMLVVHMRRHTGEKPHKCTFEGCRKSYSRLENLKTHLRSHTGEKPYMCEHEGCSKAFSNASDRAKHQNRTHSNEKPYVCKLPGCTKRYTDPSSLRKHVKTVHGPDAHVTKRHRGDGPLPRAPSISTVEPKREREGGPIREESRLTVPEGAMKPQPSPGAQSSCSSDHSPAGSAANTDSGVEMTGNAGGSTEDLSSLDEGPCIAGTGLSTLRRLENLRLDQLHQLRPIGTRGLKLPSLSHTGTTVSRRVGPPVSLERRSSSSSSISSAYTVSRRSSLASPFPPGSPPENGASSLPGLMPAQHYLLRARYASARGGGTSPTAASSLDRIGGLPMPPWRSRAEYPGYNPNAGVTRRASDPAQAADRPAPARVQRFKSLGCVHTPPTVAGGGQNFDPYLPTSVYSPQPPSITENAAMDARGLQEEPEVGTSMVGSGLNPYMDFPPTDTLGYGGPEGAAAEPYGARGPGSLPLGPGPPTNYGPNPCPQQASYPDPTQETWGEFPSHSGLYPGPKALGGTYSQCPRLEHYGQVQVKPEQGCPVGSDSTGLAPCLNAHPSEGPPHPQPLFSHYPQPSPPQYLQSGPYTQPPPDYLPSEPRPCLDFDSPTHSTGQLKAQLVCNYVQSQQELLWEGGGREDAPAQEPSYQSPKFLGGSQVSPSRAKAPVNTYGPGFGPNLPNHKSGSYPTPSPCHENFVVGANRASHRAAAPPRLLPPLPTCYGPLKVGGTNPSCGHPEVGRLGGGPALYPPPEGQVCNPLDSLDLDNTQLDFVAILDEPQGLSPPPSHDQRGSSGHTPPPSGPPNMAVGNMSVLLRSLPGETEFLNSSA
UniProt P47806: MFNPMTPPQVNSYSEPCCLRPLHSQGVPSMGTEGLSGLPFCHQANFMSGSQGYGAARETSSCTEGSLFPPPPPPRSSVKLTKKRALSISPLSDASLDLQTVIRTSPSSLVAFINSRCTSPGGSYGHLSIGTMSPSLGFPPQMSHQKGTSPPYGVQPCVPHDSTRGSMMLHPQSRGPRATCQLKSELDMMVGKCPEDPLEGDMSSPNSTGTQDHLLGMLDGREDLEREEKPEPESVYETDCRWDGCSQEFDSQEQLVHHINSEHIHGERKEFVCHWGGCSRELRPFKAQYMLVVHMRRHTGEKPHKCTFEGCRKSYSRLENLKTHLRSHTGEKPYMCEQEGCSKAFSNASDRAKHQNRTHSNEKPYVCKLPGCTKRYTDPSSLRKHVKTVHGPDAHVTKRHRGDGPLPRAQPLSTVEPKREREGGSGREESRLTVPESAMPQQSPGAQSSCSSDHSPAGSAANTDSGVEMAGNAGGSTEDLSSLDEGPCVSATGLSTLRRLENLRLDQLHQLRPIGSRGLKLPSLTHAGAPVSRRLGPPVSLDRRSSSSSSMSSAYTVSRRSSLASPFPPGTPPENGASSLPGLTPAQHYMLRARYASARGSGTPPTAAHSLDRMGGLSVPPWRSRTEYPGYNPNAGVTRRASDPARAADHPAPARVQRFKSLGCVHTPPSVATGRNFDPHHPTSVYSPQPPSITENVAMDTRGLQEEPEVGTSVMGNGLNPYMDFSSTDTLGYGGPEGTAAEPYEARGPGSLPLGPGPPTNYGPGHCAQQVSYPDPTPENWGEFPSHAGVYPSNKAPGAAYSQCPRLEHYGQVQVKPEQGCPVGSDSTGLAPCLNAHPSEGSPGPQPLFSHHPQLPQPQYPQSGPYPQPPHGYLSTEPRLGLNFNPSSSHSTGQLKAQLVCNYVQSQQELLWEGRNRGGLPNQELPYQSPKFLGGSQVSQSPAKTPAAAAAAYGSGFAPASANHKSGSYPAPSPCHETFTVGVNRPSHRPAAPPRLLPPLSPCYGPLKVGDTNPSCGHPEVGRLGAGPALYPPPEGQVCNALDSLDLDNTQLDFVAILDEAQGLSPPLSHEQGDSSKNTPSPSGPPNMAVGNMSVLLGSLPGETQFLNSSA
UniProt P35579: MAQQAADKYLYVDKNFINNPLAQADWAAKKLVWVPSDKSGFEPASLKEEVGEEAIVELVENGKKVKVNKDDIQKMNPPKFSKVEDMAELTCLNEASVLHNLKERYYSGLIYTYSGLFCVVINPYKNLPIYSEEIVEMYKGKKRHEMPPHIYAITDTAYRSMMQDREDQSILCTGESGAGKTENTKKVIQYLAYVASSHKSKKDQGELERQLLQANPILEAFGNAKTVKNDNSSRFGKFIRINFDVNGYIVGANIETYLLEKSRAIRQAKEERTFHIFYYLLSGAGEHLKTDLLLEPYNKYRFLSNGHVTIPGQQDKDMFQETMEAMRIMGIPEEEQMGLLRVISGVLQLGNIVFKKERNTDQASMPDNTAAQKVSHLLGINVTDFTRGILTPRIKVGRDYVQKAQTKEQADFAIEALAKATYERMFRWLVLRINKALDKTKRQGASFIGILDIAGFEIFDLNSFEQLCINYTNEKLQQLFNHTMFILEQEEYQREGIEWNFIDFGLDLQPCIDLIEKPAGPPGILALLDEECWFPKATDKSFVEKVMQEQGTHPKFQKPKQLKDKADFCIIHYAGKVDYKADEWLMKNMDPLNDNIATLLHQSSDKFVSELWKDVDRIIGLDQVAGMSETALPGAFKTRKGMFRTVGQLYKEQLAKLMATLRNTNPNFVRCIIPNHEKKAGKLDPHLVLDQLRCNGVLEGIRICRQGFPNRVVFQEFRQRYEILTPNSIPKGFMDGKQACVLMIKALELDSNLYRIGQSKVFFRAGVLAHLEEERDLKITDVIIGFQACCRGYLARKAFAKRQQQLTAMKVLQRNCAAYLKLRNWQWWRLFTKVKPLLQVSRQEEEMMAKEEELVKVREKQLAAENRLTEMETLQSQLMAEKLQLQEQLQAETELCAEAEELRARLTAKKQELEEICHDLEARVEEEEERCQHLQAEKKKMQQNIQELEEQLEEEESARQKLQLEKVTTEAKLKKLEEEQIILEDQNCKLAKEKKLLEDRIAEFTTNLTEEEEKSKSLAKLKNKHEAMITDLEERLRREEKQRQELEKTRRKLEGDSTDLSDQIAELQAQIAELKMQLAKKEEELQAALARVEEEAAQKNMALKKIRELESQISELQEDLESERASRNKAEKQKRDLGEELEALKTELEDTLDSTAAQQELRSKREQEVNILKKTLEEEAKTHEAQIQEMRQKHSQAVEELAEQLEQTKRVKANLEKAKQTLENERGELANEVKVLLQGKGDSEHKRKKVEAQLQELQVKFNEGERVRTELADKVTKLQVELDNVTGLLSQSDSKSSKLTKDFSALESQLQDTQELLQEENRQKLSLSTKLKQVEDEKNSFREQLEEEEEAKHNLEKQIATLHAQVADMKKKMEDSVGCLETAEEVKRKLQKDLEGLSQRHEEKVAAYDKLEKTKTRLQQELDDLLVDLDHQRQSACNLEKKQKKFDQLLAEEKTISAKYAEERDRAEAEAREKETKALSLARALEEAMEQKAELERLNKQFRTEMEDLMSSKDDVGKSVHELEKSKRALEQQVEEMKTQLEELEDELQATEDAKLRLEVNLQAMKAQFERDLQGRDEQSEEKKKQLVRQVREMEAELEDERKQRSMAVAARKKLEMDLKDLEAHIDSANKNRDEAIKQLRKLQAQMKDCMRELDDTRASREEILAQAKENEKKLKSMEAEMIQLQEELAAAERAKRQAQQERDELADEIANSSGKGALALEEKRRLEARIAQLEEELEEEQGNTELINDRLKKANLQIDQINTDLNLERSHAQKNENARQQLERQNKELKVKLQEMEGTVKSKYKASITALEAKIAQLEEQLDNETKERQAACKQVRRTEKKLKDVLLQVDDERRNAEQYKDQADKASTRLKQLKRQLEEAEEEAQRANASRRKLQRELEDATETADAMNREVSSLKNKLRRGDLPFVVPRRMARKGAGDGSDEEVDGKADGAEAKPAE
UniProt Q8N165: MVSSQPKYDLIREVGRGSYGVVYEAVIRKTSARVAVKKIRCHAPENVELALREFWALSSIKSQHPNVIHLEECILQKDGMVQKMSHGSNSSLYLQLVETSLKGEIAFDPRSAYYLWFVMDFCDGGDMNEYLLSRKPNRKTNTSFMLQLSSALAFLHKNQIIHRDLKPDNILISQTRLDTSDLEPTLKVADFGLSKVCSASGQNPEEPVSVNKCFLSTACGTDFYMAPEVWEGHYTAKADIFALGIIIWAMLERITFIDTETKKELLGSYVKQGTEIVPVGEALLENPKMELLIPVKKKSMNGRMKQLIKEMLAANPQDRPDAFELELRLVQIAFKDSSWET

What was measured:
Flag-tagged Fem1b [1] = molecular target: Flag-tagged Fem1b (UniProt Q9Z2G0); assay: affinity purification with mass spectrometry; Flag-Fem1b stably expressed in HEK293T cells; lysate in IP buffer immunoprecipitated with anti-Flag affinity gel; eluate resolved by SDS-PAGE, trypsin digest, LC-MS
Flag-tagged Fem1b [2] = molecular target: Flag-tagged Fem1b (UniProt Q9Z2G0); assay: affinity purification with mass spectrometry; Flag-Fem1b stably expressed in skeletal cells; lysate in IP buffer immunoprecipitated with anti-Flag affinity gel; eluate resolved by SDS-PAGE, trypsin digest, LC-MS

binding (Flag-tagged Fem1b [1])	binding (Flag-tagged Fem1b [2])	Substance
binds	–	Gli1 (293T cells) (from UniProt P08151 1-1106)
–	binds	Gli1 (skeletal cells) (from UniProt P47806 1-1111)
binds	–	Myh9 (293T cells) (from UniProt P35579 1-1960)
binds	–	Pdik1l (293T cells) (from UniProt Q8N165 1-341)

These are yes or no findings as the source states them, for the method shown. In cells and extracts the contact can be indirect. Here binding means that the protein was enriched with, or labelled near, the bait; the list need not be complete.
